Reference: the supplement of paper PMC10849652
This is one part of the list.

By UniProt entry, the sequences of proteins in these tests, tags left out. Where a name states a change or a piece, a line headed by the entry shows the natural chain unless it says otherwise.
UniProt Q9NXG2: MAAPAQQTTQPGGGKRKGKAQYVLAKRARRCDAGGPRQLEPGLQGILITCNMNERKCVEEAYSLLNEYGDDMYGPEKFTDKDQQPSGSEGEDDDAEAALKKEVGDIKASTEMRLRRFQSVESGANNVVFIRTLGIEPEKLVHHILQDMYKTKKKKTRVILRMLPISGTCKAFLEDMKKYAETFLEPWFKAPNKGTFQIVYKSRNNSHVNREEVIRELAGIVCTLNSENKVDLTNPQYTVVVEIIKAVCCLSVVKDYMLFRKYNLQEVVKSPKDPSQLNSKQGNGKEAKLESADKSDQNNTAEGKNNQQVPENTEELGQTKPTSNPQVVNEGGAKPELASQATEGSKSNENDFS
UniProt Q8WY91: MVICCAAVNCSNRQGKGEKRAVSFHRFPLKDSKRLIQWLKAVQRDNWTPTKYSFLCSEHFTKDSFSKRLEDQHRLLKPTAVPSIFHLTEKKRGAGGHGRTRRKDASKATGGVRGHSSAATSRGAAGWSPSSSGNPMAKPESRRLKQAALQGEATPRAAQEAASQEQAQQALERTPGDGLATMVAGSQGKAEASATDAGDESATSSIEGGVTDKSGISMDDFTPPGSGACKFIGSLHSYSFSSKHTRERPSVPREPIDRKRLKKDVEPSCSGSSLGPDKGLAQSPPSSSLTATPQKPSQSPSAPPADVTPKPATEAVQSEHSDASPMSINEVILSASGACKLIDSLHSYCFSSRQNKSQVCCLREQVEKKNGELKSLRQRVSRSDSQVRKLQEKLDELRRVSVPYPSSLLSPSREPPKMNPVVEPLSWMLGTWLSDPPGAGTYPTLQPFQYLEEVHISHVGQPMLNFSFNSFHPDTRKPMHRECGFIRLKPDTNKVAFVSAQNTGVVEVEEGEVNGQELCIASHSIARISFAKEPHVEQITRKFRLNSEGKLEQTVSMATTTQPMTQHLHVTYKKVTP
UniProt Q9BVK8: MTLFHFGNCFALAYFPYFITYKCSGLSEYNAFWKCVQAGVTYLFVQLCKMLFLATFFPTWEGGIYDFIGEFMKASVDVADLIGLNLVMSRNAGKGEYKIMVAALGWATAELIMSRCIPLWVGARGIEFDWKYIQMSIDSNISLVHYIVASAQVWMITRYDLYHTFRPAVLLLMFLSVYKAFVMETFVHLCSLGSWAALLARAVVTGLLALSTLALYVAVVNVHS
UniProt Q9H1K6: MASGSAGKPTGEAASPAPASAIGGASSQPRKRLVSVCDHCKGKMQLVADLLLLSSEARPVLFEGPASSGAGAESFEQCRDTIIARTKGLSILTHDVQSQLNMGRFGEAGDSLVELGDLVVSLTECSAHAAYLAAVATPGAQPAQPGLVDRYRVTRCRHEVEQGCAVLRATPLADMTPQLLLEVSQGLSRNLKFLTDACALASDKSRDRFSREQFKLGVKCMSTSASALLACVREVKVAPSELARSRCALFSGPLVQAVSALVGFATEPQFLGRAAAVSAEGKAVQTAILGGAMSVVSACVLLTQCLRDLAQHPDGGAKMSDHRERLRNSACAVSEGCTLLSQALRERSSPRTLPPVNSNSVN
UniProt Q9NPI0: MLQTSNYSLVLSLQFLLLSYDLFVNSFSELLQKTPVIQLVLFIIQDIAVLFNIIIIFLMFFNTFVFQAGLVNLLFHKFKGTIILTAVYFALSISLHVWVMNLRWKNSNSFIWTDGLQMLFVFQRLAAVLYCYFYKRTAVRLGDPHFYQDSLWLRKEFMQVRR
UniProt Q9BSA9: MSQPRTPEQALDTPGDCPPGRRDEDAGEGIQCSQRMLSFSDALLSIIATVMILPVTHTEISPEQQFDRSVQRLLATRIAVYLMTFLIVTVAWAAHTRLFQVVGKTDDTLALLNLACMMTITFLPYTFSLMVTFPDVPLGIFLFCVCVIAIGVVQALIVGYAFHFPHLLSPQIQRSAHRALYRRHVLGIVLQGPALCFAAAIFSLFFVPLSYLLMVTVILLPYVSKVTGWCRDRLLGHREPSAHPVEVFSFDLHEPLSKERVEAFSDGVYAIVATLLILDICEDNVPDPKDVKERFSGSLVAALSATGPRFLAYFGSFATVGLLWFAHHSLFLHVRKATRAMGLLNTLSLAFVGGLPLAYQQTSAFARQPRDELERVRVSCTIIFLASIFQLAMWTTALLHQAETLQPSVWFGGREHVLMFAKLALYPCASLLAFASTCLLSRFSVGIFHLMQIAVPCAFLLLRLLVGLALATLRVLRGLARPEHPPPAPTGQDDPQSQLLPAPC
UniProt Q96IK0: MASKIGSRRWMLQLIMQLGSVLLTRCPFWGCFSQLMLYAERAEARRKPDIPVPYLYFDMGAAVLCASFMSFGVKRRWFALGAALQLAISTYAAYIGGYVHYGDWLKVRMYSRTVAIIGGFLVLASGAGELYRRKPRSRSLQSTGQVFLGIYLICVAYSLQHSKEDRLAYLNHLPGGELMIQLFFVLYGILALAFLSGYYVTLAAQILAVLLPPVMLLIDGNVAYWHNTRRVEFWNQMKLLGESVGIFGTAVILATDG
UniProt P37173, whole entry, looked up: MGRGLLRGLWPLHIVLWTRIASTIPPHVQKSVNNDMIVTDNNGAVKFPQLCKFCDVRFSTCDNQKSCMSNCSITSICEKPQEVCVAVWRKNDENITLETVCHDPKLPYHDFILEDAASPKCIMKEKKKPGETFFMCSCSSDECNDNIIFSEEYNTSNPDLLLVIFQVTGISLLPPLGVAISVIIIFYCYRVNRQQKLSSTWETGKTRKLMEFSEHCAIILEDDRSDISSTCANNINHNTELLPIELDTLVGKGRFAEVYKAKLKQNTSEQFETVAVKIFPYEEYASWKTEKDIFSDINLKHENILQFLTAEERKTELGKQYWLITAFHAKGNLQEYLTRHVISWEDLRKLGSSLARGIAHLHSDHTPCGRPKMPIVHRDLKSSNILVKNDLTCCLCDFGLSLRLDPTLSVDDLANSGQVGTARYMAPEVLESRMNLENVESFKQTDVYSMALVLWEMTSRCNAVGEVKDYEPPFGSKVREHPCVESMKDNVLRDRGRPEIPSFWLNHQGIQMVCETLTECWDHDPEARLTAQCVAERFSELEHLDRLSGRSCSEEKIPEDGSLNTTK
UniProt Q92545: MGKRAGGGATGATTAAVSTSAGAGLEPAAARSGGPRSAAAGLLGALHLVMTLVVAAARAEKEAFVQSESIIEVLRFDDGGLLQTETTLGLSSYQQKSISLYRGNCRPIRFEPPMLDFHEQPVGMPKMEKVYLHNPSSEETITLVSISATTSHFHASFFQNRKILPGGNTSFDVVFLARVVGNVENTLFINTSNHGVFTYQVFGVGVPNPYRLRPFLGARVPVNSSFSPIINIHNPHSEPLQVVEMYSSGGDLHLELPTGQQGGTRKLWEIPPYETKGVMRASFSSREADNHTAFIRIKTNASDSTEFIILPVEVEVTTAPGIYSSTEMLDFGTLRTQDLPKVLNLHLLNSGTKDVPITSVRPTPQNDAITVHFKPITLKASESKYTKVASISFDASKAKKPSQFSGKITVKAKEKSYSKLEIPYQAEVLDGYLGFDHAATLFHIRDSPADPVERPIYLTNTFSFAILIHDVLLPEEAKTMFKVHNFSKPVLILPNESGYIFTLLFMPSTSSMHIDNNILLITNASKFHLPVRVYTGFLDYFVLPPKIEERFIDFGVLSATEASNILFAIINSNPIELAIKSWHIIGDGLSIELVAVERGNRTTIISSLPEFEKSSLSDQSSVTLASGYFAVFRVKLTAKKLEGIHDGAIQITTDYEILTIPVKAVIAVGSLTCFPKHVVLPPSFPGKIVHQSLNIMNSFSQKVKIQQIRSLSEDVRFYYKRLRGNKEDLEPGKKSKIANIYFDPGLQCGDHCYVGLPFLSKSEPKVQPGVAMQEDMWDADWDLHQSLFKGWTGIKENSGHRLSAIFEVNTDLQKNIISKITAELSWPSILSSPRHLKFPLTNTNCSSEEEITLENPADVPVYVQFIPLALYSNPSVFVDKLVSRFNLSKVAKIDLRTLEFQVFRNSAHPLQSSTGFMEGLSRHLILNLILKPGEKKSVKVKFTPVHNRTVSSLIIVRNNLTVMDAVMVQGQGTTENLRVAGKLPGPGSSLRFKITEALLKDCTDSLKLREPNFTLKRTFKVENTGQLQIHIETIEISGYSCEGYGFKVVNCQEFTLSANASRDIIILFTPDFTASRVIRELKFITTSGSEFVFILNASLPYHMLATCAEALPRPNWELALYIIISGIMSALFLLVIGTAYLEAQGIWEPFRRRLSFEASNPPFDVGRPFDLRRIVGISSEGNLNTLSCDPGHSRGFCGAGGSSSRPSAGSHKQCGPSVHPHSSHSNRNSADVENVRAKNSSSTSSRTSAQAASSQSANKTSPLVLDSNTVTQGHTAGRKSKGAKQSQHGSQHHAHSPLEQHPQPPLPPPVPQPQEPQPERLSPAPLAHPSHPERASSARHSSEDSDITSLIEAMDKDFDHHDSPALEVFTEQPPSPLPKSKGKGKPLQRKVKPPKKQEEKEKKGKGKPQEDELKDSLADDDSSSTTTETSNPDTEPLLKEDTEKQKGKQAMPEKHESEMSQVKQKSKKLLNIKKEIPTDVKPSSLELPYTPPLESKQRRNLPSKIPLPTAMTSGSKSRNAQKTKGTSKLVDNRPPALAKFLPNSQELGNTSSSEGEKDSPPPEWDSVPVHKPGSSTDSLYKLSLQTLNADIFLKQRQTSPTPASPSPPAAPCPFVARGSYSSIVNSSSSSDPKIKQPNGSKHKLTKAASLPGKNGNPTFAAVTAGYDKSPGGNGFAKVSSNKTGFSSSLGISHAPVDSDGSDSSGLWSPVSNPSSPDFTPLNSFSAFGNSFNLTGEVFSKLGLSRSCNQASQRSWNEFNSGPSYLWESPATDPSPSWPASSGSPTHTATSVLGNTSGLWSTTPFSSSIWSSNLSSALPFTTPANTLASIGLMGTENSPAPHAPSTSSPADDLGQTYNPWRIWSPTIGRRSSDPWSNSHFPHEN
UniProt P07996: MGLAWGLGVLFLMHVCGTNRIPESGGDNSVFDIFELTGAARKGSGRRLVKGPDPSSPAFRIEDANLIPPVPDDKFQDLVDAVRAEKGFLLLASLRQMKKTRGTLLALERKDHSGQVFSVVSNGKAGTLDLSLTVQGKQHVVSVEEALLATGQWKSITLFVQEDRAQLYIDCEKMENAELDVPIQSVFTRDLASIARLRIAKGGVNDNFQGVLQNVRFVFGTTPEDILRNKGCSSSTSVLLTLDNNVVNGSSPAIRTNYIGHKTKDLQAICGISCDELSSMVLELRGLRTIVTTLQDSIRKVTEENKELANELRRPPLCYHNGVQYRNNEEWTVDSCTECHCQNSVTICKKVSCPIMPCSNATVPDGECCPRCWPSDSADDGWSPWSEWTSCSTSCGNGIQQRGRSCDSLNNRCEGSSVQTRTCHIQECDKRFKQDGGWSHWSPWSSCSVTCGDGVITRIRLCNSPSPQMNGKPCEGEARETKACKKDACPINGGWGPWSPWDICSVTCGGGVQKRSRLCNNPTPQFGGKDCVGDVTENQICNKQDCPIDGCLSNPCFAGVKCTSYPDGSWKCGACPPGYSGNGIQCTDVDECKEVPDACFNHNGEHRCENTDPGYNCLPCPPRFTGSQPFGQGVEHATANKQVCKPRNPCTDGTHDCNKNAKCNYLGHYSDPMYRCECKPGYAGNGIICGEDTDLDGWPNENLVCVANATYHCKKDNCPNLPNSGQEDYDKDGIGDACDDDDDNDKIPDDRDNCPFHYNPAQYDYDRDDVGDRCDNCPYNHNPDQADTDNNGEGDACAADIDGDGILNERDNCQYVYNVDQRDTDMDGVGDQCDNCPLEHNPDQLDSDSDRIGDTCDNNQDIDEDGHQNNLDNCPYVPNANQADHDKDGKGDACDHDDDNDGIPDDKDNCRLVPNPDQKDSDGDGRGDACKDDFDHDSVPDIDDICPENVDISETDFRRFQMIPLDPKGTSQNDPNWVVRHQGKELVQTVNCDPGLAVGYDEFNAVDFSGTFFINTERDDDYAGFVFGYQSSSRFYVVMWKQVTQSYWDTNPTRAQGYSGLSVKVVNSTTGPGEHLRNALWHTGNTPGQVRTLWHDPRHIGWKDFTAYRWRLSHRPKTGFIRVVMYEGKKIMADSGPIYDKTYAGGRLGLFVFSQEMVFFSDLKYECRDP
UniProt Q8N9M5: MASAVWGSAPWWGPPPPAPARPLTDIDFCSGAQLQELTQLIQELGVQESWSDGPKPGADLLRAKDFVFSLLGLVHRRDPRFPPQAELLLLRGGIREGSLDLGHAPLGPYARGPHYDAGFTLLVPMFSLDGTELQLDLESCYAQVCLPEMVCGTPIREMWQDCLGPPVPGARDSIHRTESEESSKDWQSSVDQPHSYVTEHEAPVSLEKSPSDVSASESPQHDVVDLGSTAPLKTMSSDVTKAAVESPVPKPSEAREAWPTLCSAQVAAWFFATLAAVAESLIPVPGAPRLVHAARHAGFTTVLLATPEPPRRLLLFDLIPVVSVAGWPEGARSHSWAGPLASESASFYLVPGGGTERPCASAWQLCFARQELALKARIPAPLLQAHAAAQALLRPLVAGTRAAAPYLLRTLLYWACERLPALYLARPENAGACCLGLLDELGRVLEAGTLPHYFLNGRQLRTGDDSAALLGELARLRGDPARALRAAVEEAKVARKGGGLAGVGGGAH

Assays:
Test in all cases: log2 fold change, soluble protein after heating vs DMSO (PISA); higher = thermal stabilisation; K562 lysate, 10 uM; active = over 0.2 and 3.5 SD of the protein, either way, in both replicates (recomputed)
vemurafenib = compound: CCCS(=O)(=O)Nc1ccc(F)c(C(=O)c2c[nH]c3ncc(-c4ccc(Cl)cc4)cc23)c1F [vemurafenib]
Outline: (§1)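 Thermal stability, expressed as log-two fold change relative to solvent controls, is given from duplicates. Crude K562 extract in PBS pH 7.4 with 1 mM MgCl2, at 1 mg/mL protein, was treated with 10 μM compound for 30 min and heated in aliquots for 3 min across 48°C-58°C. After pooling, adjustment to 0.5% NP-40 at 4°C and centrifugation at 21,000xg for 90 min, supernatant protein was measured by TMTpro 16plex LC-MS/MS with channel sums equalised.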

[1] = compound: CCCS(=O)(=O)Nc1ccc(F)c(C(=O)c2c[nH]c3ncc(Cl)cc23)c1F
Outline: as §1

barasertib = compound: CCN(CCCOc1ccc2c(Nc3cc(CC(=O)Nc4cccc(F)c4)[nH]n3)ncnc2c1)CCOP(=O)(O)O [barasertib]
Outline: as §1

[2] = compound: CC[C@@H]1C(=O)N(C)c2cnc(Nc3ccc(C(=O)NC4CCN(C)CC4)cc3OC)nc2N1C1CCCC1
Outline: as §1

volasertib = compound: CC[C@@H]1C(=O)N(C)c2cnc(Nc3ccc(C(=O)N[C@H]4CC[C@H](N5CCN(CC6CC6)CC5)CC4)cc3OC)nc2N1C(C)C [volasertib]
Outline: as §1

[3] = compound: CCn1c(C(=O)N(C2CC2)C2CC2)cc2c3c(ncn3C)c(Nc3cc(C)n(C)n3)nc21
Outline: as §1

[4] = compound: CCn1cc(-c2ccnc3[nH]c(-c4cccc(CN(C)C)c4)cc23)c(-c2ccc(NC(=O)N(C)C)cc2)n1
Outline: as §1

[5] = compound: CN1CCC(CNc2ccc3ncc(-c4cccc(OC(F)(F)F)c4)n3n2)CC1
Outline: as §1

saracatinib = compound: CN1CCN(CCOc2cc(OC3CCOCC3)c3c(Nc4c(Cl)ccc5c4OCO5)ncnc3c2)CC1 [saracatinib]
Outline: as §1

sotrastaurin = compound: CN1CCN(c2nc(C3=C(c4c[nH]c5ccccc45)C(=O)NC3=O)c3ccccc3n2)CC1 [sotrastaurin]
Outline: as §1

alvocidib = compound: CN1CC[C@H](c2c(O)cc(O)c3c(=O)cc(-c4ccccc4Cl)oc23)[C@H](O)C1 [alvocidib]
Outline: as §1

Tubastatin A = compound: CN1CCc2c(c3ccccc3n2Cc2ccc(C(=O)NO)cc2)C1 [Tubastatin A]
Outline: as §1

[6] = compound: CNC(=O)C1=CC=CC=C1NC2=NC(=NC=C2Cl)NC3=C(C=C(C=C3)N4CCOCC4)OC
Outline: as §1

defactinib = compound: CNC(=O)c1ccc(Nc2ncc(C(F)(F)F)c(NCc3nccnc3N(C)S(C)(=O)=O)n2)cc1 [defactinib]
Outline: as §1

[7] = compound: CNc1nc(-c2ccc3c(N)n[nH]c3c2)cc(N2C[C@@H](C(=O)NC3CCCCC3)CC[C@H]2C)n1
Outline: as §1

encorafenib = compound: COC(=O)N[C@@H](C)CNc1nccc(-c2cn(C(C)C)nc2-c2cc(Cl)cc(NS(C)(=O)=O)c2F)n1 [encorafenib]
Outline: as §1

[8] = compound: COC(=O)[C@H](CCSC)NC(=O)C1=C(C=C(C=C1)NC[C@H](CS)N)C2=CC=CC=C2
Outline: as §1

alisertib = compound: COc1cc(Nc2ncc3c(n2)-c2ccc(Cl)cc2C(c2c(F)cccc2OC)=NC3)ccc1C(=O)O [alisertib]
Outline: as §1

[9] = compound: COc1cc2nc(-c3cc(F)ccc3O)nc(N[C@@H]3CNC[C@H]3C(C)(C)O)c2cc1OC
Outline: as §1

gefitinib = compound: COc1cc2ncnc(Nc3ccc(F)c(Cl)c3)c2cc1OCCCN1CCOCC1 [gefitinib]
Outline: as §1

Measured: log2 fold change

THUMPD1 (UniProt Q9NXG2)
inactive: vemurafenib -0.029 | [1] -0.016 | barasertib -0.026 | [2] -0.007 | volasertib 0.023 | [3] -0.022 | [4] -0.061 | [5] 0.046 | saracatinib -0.022 | sotrastaurin 0.008 | alvocidib -0.001 | Tubastatin A 0.014 | [6] 0.007 | defactinib 0.006 | [7] -0.031 | encorafenib -0.002 | [8] -0.057 | alisertib -0.007 | [9] 0.012 | gefitinib -0.009

THAP4 (UniProt Q8WY91)
inactive: [4] -0.207 | [5] -0.004 | alvocidib -0.033

TMEM147 (UniProt Q9BVK8)
inactive: [1] 0.069 | barasertib 0.003 | [2] -0.094 | volasertib -0.044 | [3] 0.028 | [4] -0.125 | [5] 0.04 | sotrastaurin 0.019 | alvocidib -0.125 | Tubastatin A -0.031 | [6] -0.051 | encorafenib 0.154 | [8] -0.04 | alisertib 0.021 | [9] -0.012 | gefitinib 0.081

TICAM1 (UniProt Q8IUC6)
inactive: [1] 0.031 | barasertib -0.124 | volasertib -0.022 | [3] -0.072 | [4] -0.173 | [5] 0.149 | saracatinib 0.003 | sotrastaurin 0.036 | alvocidib -0.065 | Tubastatin A -0.019 | [6] -0.06 | [7] 0.01 | alisertib 0.03 | [9] -0.009 | gefitinib -0.022

TLNRD1 (UniProt Q9H1K6)
inactive: [1] -0.109 | barasertib -0.282 | volasertib -0.264 | [3] -0.262 | saracatinib 0.119 | sotrastaurin -0.084 | Tubastatin A 0.17 | [7] 0.063 | [9] 0.132

TMEM138 (UniProt Q9NPI0)
inactive: vemurafenib 0.048 | [2] -0.022 | saracatinib 0.033 | [6] -0.121 | defactinib 0.084 | [7] 0.01 | encorafenib -0.048 | [8] -0.062

TMEM175 (UniProt Q9BSA9)
inactive: barasertib 0.057 | [3] -0.085 | [4] -0.035 | [5] 0.07 | sotrastaurin -0.145 | alvocidib -0.23 | Tubastatin A 0.039 | [6] 0.082

TMEM184B (UniProt Q9Y519)
inactive: [3] -0.006 | saracatinib 0.018 | sotrastaurin 0.018 | Tubastatin A 0.014 | [7] -0.018

Looked up one by one from the list above, two records:
TLNRD1 (UniProt Q9H1K6)
inactive: [1] -0.109 | barasertib -0.282 | volasertib -0.264 | [3] -0.262 | saracatinib 0.119 | sotrastaurin -0.084 | Tubastatin A 0.17 | [7] 0.063 | [9] 0.132

TMEM175 (UniProt Q9BSA9)
inactive: barasertib 0.057 | [3] -0.085 | [4] -0.035 | [5] 0.07 | sotrastaurin -0.145 | alvocidib -0.23 | Tubastatin A 0.039 | [6] 0.082

Next entries

TMEM101 (UniProt Q96IK0)
inactive: [1] -0.069 | barasertib 0.019 | [2] 0.024 | volasertib -0.046 | [3] -0.029 | [4] -0.063 | [5] -0.066 | saracatinib 0.033 | sotrastaurin -0.107 | alvocidib 0.307 | Tubastatin A -0.016 | [6] 0.058 | [7] 0.121 | encorafenib -0.011 | [8] -0.041 | alisertib 0.028 | [9] 0.148 | gefitinib 0.04

TIFA (UniProt Q96CG3)
inactive: [2] -0.007 | [3] -0.049 | [4] -0.08 | [5] 0.086 | sotrastaurin 0.08 | alvocidib 0.01 | Tubastatin A 0.091 | [6] -0.079 | encorafenib 0.019 | [8] -0.051

TMEM106C (UniProt Q9BVX2)
inactive: barasertib 0.196 | [2] 0.015 | [6] 0.32 | encorafenib -0.008 | [8] 0.124

TGFBR2 isoform 2 (UniProt P37173)
inactive: [2] -0.159 | [3] 0.007 | saracatinib 0.086 | Tubastatin A 0.165 | [6] 0.104 | [7] 0.094 | encorafenib -0.154 | [8] 0.116

TMEM131 (UniProt Q92545)
inactive: [4] 0.115 | [5] 0.04 | alvocidib -0.279

THBS1 (UniProt P07996)
inactive: vemurafenib -0.079 | [4] -0.014 | [5] -0.162 | saracatinib -0.052 | sotrastaurin 0.02 | alvocidib -0.048 | defactinib -0.014 | [7] -0.065

TMEM102 (UniProt Q8N9M5)
inactive: vemurafenib -0.013 | [2] -0.055 | [3] -0.04 | sotrastaurin 0.097 | Tubastatin A 0.079 | defactinib -0.052 | encorafenib 0.079 | [8] 0.119 | alisertib -0.315 | gefitinib -0.094
